Molecules are shown by their SMILES. The entries are a selection whose mix differs from that of the whole data set. Records with an inconclusive call do not appear. Active and inactive are the calls of the source. Calls follow the shape of the dose curve; as a rule, active = well fitted inhibition curve with a large enough effect; inconclusive = small, poorly fitted or top-dose-only effect, or another doubt; inactive = no such curve, though single readings can be large or run the other way.
Potency is read from the fitted curve at half-maximal effect.

Chains of the proteins cited; added tags and fusions are not shown. Lines headed by an entry give the natural chain unless they say otherwise; changes in a name come on top.
UniProt Q9Y253: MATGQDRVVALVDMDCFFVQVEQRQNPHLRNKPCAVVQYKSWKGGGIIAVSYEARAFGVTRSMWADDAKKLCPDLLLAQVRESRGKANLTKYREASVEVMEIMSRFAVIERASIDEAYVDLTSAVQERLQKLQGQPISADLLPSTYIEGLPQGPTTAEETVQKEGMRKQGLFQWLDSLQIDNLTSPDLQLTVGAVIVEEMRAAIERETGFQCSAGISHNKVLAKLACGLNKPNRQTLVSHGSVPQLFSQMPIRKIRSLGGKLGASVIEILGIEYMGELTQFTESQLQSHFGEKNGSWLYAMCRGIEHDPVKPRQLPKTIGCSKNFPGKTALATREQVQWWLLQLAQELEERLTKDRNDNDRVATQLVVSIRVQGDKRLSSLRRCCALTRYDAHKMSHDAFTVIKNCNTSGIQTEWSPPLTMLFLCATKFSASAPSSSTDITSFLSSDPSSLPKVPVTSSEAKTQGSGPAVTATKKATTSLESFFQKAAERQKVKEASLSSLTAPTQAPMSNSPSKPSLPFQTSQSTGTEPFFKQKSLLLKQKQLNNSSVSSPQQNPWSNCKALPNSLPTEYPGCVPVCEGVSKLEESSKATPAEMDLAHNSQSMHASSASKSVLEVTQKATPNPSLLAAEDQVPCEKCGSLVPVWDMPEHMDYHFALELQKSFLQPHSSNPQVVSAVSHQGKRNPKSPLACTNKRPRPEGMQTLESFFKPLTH

The target of this assay is DNA polymerase eta (Homo sapiens) (UniProt Q9Y253). Put plainly: qHTS for Inhibitors of Polymerase Eta. As to conditions: recombinant Pol eta, fluorescent DNA replication assay. The source says:
The Y-family of DNA polymerases, such as Pol eta, are specifically involved in DNA repair. Pol eta copies undamaged DNA with a lower fidelity than other DNA-directed polymerases. However, it accurately replicates UV-damaged DNA; when thymine dimers are present, this polymerase inserts the complementary nucleotides in the newly synthesized DNA, thereby bypassing the lesion and suppressing the mutagenic effect of UV-induced DNA damage. […] Thus, while pol eta's (and most likely iota's) normal function is to protect humans against the deleterious consequences of DNA damage, under certain conditions they can have deleterious effects on human health. As a consequence, we propose to utilize a high throughput replication assay to identify small molecule inhibitors of pol eta. […]
Three microliters of reagents (buffer in column 3 and 4 as negative control and 10 nM Pol eta in columns 1, 2, and 5-48) were dispensed into a 1,536-well black solid-bottomed plate. […] The plates were then incubated for 15 min at room temperature, and 1 µL substrate (50 nM final concentration) was added to start the reaction and kinetically read twice at 0 min and 10 min on the Viewlux reader
As to `CS(=O)(=O)Nc1cccc2[nH]ncc12`, the Potency is active: 89.1 µM.

These data come from PubChem BioAssay AID588591 (National Center for Advancing Translational Sciences (NCATS), 2011).
